{"sequences": {"note": "Protein sequences, listed by entry. Tags and fused reporters are not part of them. Lines headed by an entry give the natural chain unless they say otherwise; changes in a name come on top.", "UniProt P14735, whole entry, looked up": "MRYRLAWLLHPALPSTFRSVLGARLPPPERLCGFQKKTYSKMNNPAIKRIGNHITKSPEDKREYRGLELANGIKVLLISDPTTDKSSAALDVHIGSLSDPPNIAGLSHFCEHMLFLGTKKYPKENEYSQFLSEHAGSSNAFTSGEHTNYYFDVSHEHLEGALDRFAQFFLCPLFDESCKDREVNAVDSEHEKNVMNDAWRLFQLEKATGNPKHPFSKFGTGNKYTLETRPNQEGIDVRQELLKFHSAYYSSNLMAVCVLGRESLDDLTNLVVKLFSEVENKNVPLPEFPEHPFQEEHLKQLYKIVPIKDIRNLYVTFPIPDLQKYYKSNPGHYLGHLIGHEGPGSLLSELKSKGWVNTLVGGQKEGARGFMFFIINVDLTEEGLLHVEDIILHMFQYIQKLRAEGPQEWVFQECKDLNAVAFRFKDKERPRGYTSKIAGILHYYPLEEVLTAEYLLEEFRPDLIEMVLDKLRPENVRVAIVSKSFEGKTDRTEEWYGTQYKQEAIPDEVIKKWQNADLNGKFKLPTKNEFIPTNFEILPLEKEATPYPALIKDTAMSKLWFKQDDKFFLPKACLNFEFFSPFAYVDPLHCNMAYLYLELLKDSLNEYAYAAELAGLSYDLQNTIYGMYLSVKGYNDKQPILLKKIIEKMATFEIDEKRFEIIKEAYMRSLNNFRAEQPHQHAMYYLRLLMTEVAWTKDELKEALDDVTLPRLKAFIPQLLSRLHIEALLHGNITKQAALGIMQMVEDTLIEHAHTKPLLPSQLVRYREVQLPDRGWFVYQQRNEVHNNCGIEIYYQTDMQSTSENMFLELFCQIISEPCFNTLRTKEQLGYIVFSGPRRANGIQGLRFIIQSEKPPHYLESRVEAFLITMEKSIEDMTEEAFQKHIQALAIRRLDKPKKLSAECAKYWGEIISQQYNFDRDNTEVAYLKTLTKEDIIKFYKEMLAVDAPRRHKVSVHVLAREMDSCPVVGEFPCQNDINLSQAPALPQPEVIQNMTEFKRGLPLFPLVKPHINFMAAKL", "UniProt P07954": "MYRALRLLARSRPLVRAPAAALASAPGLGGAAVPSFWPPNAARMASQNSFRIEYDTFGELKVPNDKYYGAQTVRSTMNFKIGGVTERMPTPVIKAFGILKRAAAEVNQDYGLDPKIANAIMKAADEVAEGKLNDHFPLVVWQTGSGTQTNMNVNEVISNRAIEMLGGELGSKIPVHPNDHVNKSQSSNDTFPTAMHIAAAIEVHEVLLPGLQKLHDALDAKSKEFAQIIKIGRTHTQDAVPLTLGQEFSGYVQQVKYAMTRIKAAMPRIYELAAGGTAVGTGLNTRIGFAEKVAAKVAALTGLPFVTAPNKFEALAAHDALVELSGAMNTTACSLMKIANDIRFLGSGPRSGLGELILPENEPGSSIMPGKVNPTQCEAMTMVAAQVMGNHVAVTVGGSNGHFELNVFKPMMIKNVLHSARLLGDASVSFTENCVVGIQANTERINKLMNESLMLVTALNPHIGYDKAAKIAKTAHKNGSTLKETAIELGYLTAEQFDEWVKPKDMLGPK", "UniProt P10515, whole entry": "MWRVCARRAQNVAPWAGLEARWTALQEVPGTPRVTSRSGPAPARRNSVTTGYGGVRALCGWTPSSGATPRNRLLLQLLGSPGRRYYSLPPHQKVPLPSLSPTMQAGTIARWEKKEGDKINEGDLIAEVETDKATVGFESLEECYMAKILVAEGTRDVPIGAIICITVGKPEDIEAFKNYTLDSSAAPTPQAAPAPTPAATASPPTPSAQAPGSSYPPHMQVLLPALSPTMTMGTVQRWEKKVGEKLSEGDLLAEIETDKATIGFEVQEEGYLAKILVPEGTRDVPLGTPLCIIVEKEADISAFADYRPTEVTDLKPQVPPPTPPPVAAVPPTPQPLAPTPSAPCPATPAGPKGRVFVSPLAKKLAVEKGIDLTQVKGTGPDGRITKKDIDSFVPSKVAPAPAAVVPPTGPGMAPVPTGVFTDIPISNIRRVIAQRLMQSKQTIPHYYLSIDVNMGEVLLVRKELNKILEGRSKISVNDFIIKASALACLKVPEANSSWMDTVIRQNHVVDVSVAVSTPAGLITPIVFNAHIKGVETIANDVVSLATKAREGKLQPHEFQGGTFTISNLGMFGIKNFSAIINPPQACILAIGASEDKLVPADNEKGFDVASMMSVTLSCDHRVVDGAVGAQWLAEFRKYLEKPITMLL", "UniProt P16615": "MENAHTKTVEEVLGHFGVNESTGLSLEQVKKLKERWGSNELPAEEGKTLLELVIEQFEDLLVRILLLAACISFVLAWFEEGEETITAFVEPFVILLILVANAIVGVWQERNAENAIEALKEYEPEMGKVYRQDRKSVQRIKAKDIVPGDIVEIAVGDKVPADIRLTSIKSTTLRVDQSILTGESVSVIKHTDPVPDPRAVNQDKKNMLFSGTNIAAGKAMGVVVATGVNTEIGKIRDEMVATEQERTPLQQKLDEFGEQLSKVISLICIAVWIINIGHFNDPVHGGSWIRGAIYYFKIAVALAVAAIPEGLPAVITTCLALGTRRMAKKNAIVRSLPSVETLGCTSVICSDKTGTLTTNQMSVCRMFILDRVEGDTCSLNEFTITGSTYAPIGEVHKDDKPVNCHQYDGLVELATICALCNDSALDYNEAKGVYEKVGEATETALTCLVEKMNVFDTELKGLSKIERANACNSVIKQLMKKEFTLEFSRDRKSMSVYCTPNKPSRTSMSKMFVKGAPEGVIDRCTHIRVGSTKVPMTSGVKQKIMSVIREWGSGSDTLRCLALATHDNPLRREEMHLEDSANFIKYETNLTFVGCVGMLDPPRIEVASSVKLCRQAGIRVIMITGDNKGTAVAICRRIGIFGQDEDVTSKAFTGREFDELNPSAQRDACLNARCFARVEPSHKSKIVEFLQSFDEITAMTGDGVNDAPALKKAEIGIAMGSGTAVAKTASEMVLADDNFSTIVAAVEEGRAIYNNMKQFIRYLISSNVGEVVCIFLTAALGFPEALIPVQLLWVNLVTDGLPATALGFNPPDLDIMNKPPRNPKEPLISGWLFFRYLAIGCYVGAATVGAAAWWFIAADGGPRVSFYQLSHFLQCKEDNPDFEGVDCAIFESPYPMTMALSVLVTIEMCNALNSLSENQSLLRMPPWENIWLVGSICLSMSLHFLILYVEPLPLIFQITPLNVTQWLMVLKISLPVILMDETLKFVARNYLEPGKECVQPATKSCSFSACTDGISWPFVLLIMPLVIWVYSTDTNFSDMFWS", "UniProt P12814, whole entry, looked up": "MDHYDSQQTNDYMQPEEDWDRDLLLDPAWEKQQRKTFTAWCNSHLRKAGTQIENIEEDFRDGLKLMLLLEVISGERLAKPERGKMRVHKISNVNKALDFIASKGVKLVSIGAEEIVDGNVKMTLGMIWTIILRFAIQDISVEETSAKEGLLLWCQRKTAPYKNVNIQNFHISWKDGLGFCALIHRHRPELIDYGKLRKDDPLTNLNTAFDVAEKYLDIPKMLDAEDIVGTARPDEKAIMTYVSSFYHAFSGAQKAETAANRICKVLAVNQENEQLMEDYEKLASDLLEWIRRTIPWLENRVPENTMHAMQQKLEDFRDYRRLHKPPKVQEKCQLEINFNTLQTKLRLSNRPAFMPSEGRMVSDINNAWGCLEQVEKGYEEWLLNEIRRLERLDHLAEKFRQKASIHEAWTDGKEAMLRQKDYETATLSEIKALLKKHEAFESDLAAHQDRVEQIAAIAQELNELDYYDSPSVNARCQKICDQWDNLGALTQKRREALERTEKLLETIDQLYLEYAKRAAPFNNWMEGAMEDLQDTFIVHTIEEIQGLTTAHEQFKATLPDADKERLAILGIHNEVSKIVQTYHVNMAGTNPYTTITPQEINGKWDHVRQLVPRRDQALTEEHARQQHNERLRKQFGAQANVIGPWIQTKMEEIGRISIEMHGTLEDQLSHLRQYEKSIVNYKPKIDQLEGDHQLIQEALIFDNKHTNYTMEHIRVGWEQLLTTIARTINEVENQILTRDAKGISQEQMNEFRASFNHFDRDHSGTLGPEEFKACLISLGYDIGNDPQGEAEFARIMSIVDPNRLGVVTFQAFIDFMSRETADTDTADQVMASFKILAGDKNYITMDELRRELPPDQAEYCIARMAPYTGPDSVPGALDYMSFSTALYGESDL", "UniProt P14866": "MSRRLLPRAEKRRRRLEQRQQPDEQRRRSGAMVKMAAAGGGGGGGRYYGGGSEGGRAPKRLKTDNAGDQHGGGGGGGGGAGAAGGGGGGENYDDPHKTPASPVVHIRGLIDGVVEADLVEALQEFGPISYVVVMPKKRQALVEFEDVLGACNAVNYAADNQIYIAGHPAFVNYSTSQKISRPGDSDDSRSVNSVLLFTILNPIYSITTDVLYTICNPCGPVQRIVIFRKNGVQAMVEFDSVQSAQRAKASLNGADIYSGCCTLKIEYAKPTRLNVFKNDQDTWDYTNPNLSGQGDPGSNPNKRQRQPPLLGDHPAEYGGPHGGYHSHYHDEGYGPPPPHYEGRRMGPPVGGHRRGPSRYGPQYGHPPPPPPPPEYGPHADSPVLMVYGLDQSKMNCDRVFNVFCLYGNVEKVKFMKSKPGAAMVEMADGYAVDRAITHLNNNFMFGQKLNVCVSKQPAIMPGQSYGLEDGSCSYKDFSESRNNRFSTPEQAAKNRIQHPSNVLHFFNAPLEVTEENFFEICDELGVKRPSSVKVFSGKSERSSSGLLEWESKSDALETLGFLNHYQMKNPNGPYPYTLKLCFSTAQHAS", "UniProt P08240": "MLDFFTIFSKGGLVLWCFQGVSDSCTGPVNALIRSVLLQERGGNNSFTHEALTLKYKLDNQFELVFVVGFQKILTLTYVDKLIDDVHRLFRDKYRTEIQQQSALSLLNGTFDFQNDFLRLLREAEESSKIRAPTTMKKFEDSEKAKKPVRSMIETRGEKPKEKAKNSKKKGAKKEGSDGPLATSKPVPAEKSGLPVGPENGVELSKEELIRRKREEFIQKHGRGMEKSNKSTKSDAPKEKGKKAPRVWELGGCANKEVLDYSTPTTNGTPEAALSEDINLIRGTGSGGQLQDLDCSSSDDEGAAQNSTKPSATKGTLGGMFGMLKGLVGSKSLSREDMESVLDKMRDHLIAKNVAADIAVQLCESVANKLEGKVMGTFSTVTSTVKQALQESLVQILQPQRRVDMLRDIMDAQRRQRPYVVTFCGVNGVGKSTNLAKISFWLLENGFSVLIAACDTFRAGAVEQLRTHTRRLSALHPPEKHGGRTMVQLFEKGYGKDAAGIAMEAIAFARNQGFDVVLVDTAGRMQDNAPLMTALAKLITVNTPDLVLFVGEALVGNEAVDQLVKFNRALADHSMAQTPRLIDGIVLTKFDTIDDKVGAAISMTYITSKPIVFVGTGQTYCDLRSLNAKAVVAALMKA", "UniProt P09543": "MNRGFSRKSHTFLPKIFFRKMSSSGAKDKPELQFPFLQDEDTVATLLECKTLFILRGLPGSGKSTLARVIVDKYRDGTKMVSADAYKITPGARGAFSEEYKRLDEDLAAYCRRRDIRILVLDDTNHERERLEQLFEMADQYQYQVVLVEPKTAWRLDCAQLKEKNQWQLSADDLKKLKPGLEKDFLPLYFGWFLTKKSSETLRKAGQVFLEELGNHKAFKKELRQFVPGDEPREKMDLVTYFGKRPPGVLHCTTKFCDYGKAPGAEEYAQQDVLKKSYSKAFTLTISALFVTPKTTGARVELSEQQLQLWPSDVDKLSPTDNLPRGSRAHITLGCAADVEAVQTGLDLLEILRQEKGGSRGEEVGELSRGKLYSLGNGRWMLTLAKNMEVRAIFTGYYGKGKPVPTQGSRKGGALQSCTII", "UniProt P16152": "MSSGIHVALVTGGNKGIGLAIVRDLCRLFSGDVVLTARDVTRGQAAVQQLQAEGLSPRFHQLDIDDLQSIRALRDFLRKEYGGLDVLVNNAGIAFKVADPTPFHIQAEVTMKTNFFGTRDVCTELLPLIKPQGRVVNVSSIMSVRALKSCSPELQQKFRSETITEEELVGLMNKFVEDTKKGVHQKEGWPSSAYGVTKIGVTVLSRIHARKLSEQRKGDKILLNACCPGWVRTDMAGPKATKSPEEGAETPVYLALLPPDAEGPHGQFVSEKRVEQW", "UniProt P08670, whole entry": "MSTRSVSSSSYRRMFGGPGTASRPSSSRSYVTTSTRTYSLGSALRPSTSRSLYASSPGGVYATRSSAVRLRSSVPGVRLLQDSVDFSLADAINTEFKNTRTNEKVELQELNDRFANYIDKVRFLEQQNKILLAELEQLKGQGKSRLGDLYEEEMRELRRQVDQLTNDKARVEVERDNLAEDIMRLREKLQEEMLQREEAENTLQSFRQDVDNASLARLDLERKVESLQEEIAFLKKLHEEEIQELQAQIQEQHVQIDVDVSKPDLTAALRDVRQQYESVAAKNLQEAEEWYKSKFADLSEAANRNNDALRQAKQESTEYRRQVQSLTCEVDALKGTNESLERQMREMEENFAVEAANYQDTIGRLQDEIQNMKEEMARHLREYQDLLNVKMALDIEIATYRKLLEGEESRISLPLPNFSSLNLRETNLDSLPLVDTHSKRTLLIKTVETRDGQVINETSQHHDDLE"}, "source": "the supplement of paper PMC11006884", "note": "The list shows a part of the results, in another mix than the full data."}
{"compound": "COC(=O)C#Cc1ccccc1 [methyl 3-phenylpropiolate]", "assay": "log2 ratio of iodoacetamide-alkyne labeling of the cysteine site, DMSO over compound (competition); higher = stronger covalent engagement of the cysteine by the compound, active = 1 or more", "conditions": "500 µM; treatment time 1 h; system: HEK293T cell lysate", "procedure,_shortened": "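Reporter intensities give each cysteine's log2 competition ratio as the mean of control channels over the mean of compound channels. The samples were HEK293T lysate (2 mg/mL) given vehicle or electrophile (500 µM, 1 h, ambient temperature), then iodoacetamide alkyne (1 h), followed by click coupling to sCIP-TMT reagents, pooling, trypsin digestion overnight at 37 °C, streptavidin enrichment, acid elution, Orbitrap Eclipse LC-MS/MS with FAIMS and FragPipe quantification. Duplicate channels and three replicates were run, and cysteines quantified in only one replicate were discarded.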"}
{"target": "UniProt P0DN79_C244", "log2 ratio of iodoacetamide-alkyne labeling": "inactive: -0.0339"}
{"target": "IDE C974 (UniProt P14735)", "log2 ratio of iodoacetamide-alkyne labeling": "inactive: 0.815"}
{"target": "DSP C1855 (UniProt P15924)", "log2 ratio of iodoacetamide-alkyne labeling": "inactive: 0.107"}
{"target": "PPP3CB C477 (UniProt P16298)", "log2 ratio of iodoacetamide-alkyne labeling": "inactive: 0.844"}
{"target": "PARP1 C128 (UniProt P09874)", "log2 ratio of iodoacetamide-alkyne labeling": "inactive: 0.229"}
{"target": "FH C333 (UniProt P07954)", "log2 ratio of iodoacetamide-alkyne labeling": "inactive: 0.338"}
{"target": "SP1 C755 (UniProt P08047)", "log2 ratio of iodoacetamide-alkyne labeling": "inactive: 0.59"}
{"target": "DLAT C586 (UniProt P10515)", "log2 ratio of iodoacetamide-alkyne labeling": "inactive: 0.306"}
{"target": "Q95604 C125 (UniProt P10321)", "log2 ratio of iodoacetamide-alkyne labeling": "inactive: 0.505"}
{"target": "IGF2R C1408 (UniProt P11717)", "log2 ratio of iodoacetamide-alkyne labeling": "inactive: 0.444"}
{"target": "HSP90AA1 C420 (UniProt P07900)", "log2 ratio of iodoacetamide-alkyne labeling": "inactive: -0.4"}
{"target": "EZR C117 (UniProt P15311)", "log2 ratio of iodoacetamide-alkyne labeling": "inactive: 0.178"}
{"target": "ATP2A2 C447 (UniProt P16615)", "log2 ratio of iodoacetamide-alkyne labeling": "inactive: 0.163"}
{"target": "ACTN1 C774 (UniProt P12814)", "log2 ratio of iodoacetamide-alkyne labeling": "inactive: 0.0974"}
{"target": "BCR C395 (UniProt P11274)", "log2 ratio of iodoacetamide-alkyne labeling": "active: 1.17"}
{"target": "PRKAR1A C39 (UniProt P10644)", "log2 ratio of iodoacetamide-alkyne labeling": "inactive: 0.104"}
{"target": "HNRNPL C521 (UniProt P14866)", "log2 ratio of iodoacetamide-alkyne labeling": "inactive: -0.206"}
{"target": "CAPN2 C82 (UniProt P17655)", "log2 ratio of iodoacetamide-alkyne labeling": "inactive: 0.0602"}
{"target": "TOP2A C216 (UniProt P11388)", "log2 ratio of iodoacetamide-alkyne labeling": "inactive: 0.425"}
{"target": "EPRS C697 (UniProt P07814)", "log2 ratio of iodoacetamide-alkyne labeling": "inactive: 0.0971"}
{"target": "RPSA C163 (UniProt P08865)", "log2 ratio of iodoacetamide-alkyne labeling": "inactive: -0.132"}
{"target": "GOT1 C46 (UniProt P17174)", "log2 ratio of iodoacetamide-alkyne labeling": "inactive: -0.141"}
{"target": "PDIA4 C206 (UniProt P13667)", "log2 ratio of iodoacetamide-alkyne labeling": "inactive: 0.77"}
{"target": "ACAA1 C381 (UniProt P09110)", "log2 ratio of iodoacetamide-alkyne labeling": "inactive: 0.148"}
{"target": "MAPT C639 (UniProt P10636)", "log2 ratio of iodoacetamide-alkyne labeling": "inactive: 0.479"}
{"target": "UniProt P08240_C363", "log2 ratio of iodoacetamide-alkyne labeling": "inactive: -0.0254"}
{"target": "TOP2A C405 (UniProt P11388)", "log2 ratio of iodoacetamide-alkyne labeling": "inactive: 0.186"}
{"target": "CNP C49 (UniProt P09543)", "log2 ratio of iodoacetamide-alkyne labeling": "inactive: -0.017"}
{"target": "GSPT1 C276 (UniProt P15170)", "log2 ratio of iodoacetamide-alkyne labeling": "inactive: 0.0355"}
{"target": "HARS C507 (UniProt P12081)", "log2 ratio of iodoacetamide-alkyne labeling": "inactive: 0.276"}
{"target": "CBR1 C26 (UniProt P16152)", "log2 ratio of iodoacetamide-alkyne labeling": "inactive: -0.382"}
{"target": "HSP90AB1 C521 (UniProt P08238)", "log2 ratio of iodoacetamide-alkyne labeling": "inactive: 0.298"}
{"target": "JUP C511 (UniProt P14923)", "log2 ratio of iodoacetamide-alkyne labeling": "inactive: 0.463"}
{"target": "MTHFD1 C152 (UniProt P11586)", "log2 ratio of iodoacetamide-alkyne labeling": "inactive: -0.0756"}
{"target": "HSPA8 C17 (UniProt P11142)", "log2 ratio of iodoacetamide-alkyne labeling": "inactive: -0.158"}
{"target": "PRKAR1A C362 (UniProt P10644)", "log2 ratio of iodoacetamide-alkyne labeling": "inactive: 0.0246"}
{"target": "VIM C328 (UniProt P08670)", "log2 ratio of iodoacetamide-alkyne labeling": "inactive: 0.179"}
{"target": "IMPDH2 C140 (UniProt P12268)", "log2 ratio of iodoacetamide-alkyne labeling": "active: 1.11"}
